Laboratory results reported in PubChem BioAssay AID1487 (National Center for Advancing Translational Sciences (NCATS), 2009).
The other results are listed elsewhere or left out. These are further read-outs of the screen, such as a control signal, another cell line or another target. No call is given for them. Compounds called inactive in the main read-out are mostly missing here. The note in brackets gives the kind of curve behind each potency; many fits are weak.

Test: qHTS Assay for Modulators of Lamin A Splicing
Conditions: HeLa LMNA splicing GFP/RFP minigene ratio, 48 h
Summary of the method: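 S3 HeLa stable clones carrying a lamin A-EGFP splicing minigene plus DsRed2 were seeded at 600 cells/well in Opti-MEM with 2% FBS, pin-dosed and incubated 48 h at 37°C. Acumen cytometry (488 nm) gave the GFP/RFP total-intensity ratio.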

[1] = measured here: GFP splicing reporter channel
[2] = measured here: RFP viability control channel

Compound | AC50 [1] | AC50 [2]
COc1ccc(Cl)cc1NC(=O)CNc1ccccc1N1CCOCC1 | 7.08 µM [rising, full curve, poor fit] | 20 µM [rising, partial curve]
CC(O)/C=C/c1ccc2ccccc2n1 (stereo unspecified) | 10 µM [falling, partial curve] | 
O=C(Cc1coc2ccc3ccccc3c12)N1CCc2ccccc21 | 12.6 µM [rising, single point] | 12.6 µM [rising, single point]
Cc1nn(C2CCS(=O)(=O)C2)c(Cl)c1/C=C/C(=O)OCC(=O)c1c[nH]c2ccccc12 (stereo unspecified) | 7.08 µM [rising, full curve] | 11.2 µM [rising, partial curve]
O=C(O)c1cc(O)c2c(c1)C(=O)c1cccc(O)c1C2=O |  | 12.6 µM [rising, single point]
O=C1C=CC(=O)N1c1ccc(OC(F)F)cc1 | 35.5 µM [rising, single point] | 31.6 µM [rising, single point]
O=C(CSc1nc2ccccc2nc1Cc1ccc(Cl)cc1)N1CCN(c2ccccc2F)CC1 |  | 7.08 µM [falling, full curve, poor fit]
Cc1ccccc1-n1nnc2c(=O)oc3ccccc3c21 |  | 10 µM [rising, partial curve, poor fit]
N#CC(C#N)=C1C=CC=CN1/C(=C\c1ccco1)C(=O)c1ccc(Br)cc1 | 3.98 µM [falling, full curve] | 6.31 µM [falling, full curve]
COc1ccc(C(=O)NCCc2nnc(SCC(=O)Nc3ccc(Br)cc3)n2C)cc1 | 12.6 µM [rising, single point] | 
CCOc1ccc(-c2cc(C(=O)N3CCN(c4cccc(C)c4)C(C)C3)c3ccccc3n2)cc1 (stereo unspecified) |  | 2.82 µM [rising, full curve, poor fit]
Cc1ccc(C)c(N2CCN(C(=O)CCCCCn3c(=O)[nH]c4ccccc4c3=O)CC2)c1 | 22.4 µM [falling, partial curve] | 22.4 µM [falling, partial curve, poor fit]
O=C(CN(c1cccc(Cl)c1)S(=O)(=O)c1ccc(Cl)cc1)N1CCc2ccccc2C1 | 12.6 µM [rising, partial curve, poor fit] | 22.4 µM [rising, single point]
CCCc1cc(C(=O)Nc2sc(C)c(CC)c2C#N)no1 |  | 35.5 µM [rising, partial curve, poor fit]
CC1CC(C)CN(C(=O)CSc2nc(Cc3cccs3)nc3ccccc23)C1 (stereo unspecified) |  | 35.5 µM [rising, single point]
Cc1ccc(S(=O)(=O)NCCCOC(=O)Nc2ccncc2)cc1 | 14.1 µM [rising, single point] | 20 µM [rising, single point]
CCc1cccc(NC(c2nnc(-c3ccccc3)o2)c2ccc(F)cc2Cl)c1 (stereo unspecified) |  | 35.5 µM [rising, single point]
CC1CCCCC1NC(=O)CSc1nnc(COc2ccccc2Cl)o1 (stereo unspecified) | 20 µM [rising, single point] | 14.1 µM [rising, single point]
COc1ccccc1-n1cnnc1SCC(=O)Nc1cccnc1Cl |  | 0.00282 µM [falling, full curve]
COc1ccc(OC)c(N/C(=N/C(=S)Nc2ccccc2)Nc2nc(C)cc(C)n2)c1 | 0.0794 µM [falling, full curve] | 0.447 µM [falling, partial curve, poor fit]
FC(F)(F)c1cccc(NC(=S)NC2CCCC2)c1 |  | 20 µM [rising, single point]
C=CCc1c(C)nc(-c2ccccc2)nc1Nc1ccccc1O | 31.6 µM [rising, partial curve] | 
FC(F)Sc1ccc(-n2cc(-c3ccc(Cl)cc3)[n+]3c2CCC3)cc1 |  | 35.5 µM [rising, single point]
COCCCn1nnnc1SCC(=O)Nc1ccc2c(c1)OCCO2 |  | 0.0562 µM [falling, full curve]
CCOCCCNC(=O)C1c2ccccc2C(=O)N2CCc3ccccc3C12 (stereo unspecified) |  | 35.5 µM [rising, single point]
CCCCC(=O)O[C@H]1CC[C@H]2[C@@H]3CCc4cc(O)ccc4[C@H]3CC[C@]12C | 1.58 µM [falling, full curve, poor fit] | 5.62 µM [falling, partial curve]
COC(=O)c1cc(CNC(=O)c2ccccc2Cl)ccc1OC | 0.0562 µM [falling, full curve] | 0.0501 µM [falling, full curve]

4 neighbouring compounds out of the list so far, quoted:
Compound | AC50 [1] | AC50 [2]
COCCCn1nnnc1SCC(=O)Nc1ccc2c(c1)OCCO2 |  | 0.0562 µM [falling, full curve]
CCOCCCNC(=O)C1c2ccccc2C(=O)N2CCc3ccccc3C12 (stereo unspecified) |  | 35.5 µM [rising, single point]
CCCCC(=O)O[C@H]1CC[C@H]2[C@@H]3CCc4cc(O)ccc4[C@H]3CC[C@]12C | 1.58 µM [falling, full curve, poor fit] | 5.62 µM [falling, partial curve]
COC(=O)c1cc(CNC(=O)c2ccccc2Cl)ccc1OC | 0.0562 µM [falling, full curve] | 0.0501 µM [falling, full curve]

Going on with the list.

Compound | AC50 [1] | AC50 [2]
CCN(CC(=O)Nc1ccc(OC)c(OC)c1)S(=O)(=O)c1ccc(C)cc1 |  | 22.4 µM [rising, single point]
CCCCOC(=O)c1ccc(OC(=O)c2sc3ncn(Cc4ccccc4Cl)c(=O)c3c2C)cc1 |  | 0.112 µM [falling, partial curve, poor fit]
Cc1cccc(NC(=O)CNC(=O)COc2ccc(C(=O)c3ccc(F)cc3)cc2)c1C | 3.55 µM [rising, single point] | 3.98 µM [rising, single point]
CC(/C=C1\SC(=O)N(CC(=O)Nc2ccc(O)cc2)C1=O)=C\c1ccccc1 |  | 35.5 µM [rising, single point]
COc1cccc(CNC(=O)Cc2csc3nc(-c4ccccc4)cn23)c1 | 35.5 µM [falling, partial curve, poor fit] | 
CCOc1ccc(CNCCCSc2nnnn2C)cc1OC |  | 0.02 µM [falling, full curve, poor fit]
Cc1ccc(-c2csc3nnc(SCC(=O)Nc4nsc(-c5ccccc5)n4)n23)cc1 | 8.91 µM [rising, partial curve, poor fit] | 15.8 µM [rising, single point]
CCOC(=O)COc1ccc(/C=C/[N+](=O)[O-])c(OCC(=O)OCC)c1 | 35.5 µM [falling, single point] | 31.6 µM [falling, single point]
CCC(C)(C)C1CCc2nc3ccccc3c(C(=O)OC(C)C(=O)Nc3c(C)n(C)n(-c4ccccc4)c3=O)c2C1 (stereo unspecified) |  | 0.1 µM [rising, full curve, poor fit]
O=c1c2ccccc2nc(-c2cccs2)n1-c1cccc2ccccc12 | 14.1 µM [rising, single point] | 20 µM [rising, single point]
O=C(CNc1ccc(F)cc1)N/N=C/C1CC=CCC1 (stereo unspecified) |  | 0.0562 µM [falling, full curve, poor fit]
CC(=O)Nc1cc2ccccc2oc1=O | 12.6 µM [falling, single point] | 12.6 µM [falling, single point]
COc1ccc(/C=N/NC(=O)c2nc(-c3ccccc3)n(-c3ccccc3)n2)cc1OC |  | 0.158 µM [rising, full curve, poor fit]
CCN(CC)S(=O)(=O)c1ccc(O)c(NS(=O)(=O)c2ccccc2F)c1 |  | 14.1 µM [rising, partial curve, poor fit]
CN1CCC2(CC1)N=C(c1ccc(F)cc1)C(=S)N2C(=O)c1ccc(C(C)(C)C)cc1 |  | 35.5 µM [rising, single point]
O=C(Cc1ccc(Cl)cc1)Oc1cccc2cccnc12 |  | 3.16 µM [falling, full curve, poor fit]
COc1ccc(NC(=O)C2CCCN(S(=O)(=O)c3c(C)n[nH]c3C)C2)c(OC)c1 (stereo unspecified) | 10 µM [rising, single point] | 10 µM [rising, partial curve]
COc1ccc(/C=N/Nc2nc(-c3cccc(S(=O)(=O)N4CCCC4)c3)cs2)c(OC)c1 | 14.1 µM [rising, single point] | 35.5 µM [rising, partial curve]
CC(=O)Nc1c(O)nc(SC/C=C/CSc2nc(O)c(NC(C)=O)c(=O)[nH]2)[nH]c1=O | 0.447 µM [falling, full curve, poor fit] | 
Cc1cc(C)nc(SCc2ccc(C(=O)N/N=C/c3ccccc3C(=O)O)cc2)n1 | 0.158 µM [falling, full curve, poor fit] | 
CCCc1sc(N/N=C/c2ccccn2)nc1-c1ccc(F)cc1 |  | 22.4 µM [rising, partial curve]
COCCNC(=O)c1ccc(-n2c(-c3ccccc3)cc3c2CCC(C)C3)cc1 (stereo unspecified) | 8.91 µM [falling, partial curve] | 10 µM [falling, partial curve]
CCOC(=O)c1[nH]nc(-c2cc(CC)c(O)cc2O)c1-c1cscn1 | 7.94 µM [falling, partial curve, poor fit] | 
COc1ccc(C(=O)N2CCC(C(=O)c3ccc(F)cc3)CC2)cc1 | 15.8 µM [rising, single point] | 17.8 µM [rising, partial curve]
C=CCn1c(SCC(=O)NCCOC)nnc1-c1cc2c(s1)CCC(CC)C2 (stereo unspecified) |  | 11.2 µM [rising, single point]
CCOC(=O)Cn1nnnc1CN1CCN(c2ccc(OC)cc2)CC1 | 0.02 µM [rising, full curve, poor fit] | 
O=C(O)CNC(=O)c1ccccc1Br | 17.8 µM [rising, partial curve] | 3.98 µM [rising, partial curve]
